Data reported in US20230357292A1, “MULTI-COORDINATE GOLD-PHOSPHINE COMPOUNDS AND METHOD OF USE” (University of Kentucky Research Foundation, priority 2020, published 2023).

Tests used:
[1] = test system: MDA-MB-231 cells; details: 1 μM for 12 h
[2] = test system: MDA-MB-231 cells; details: 1 μM, 12 h

Structure (SMILES): [Cl-].[Cl][Au-]1([c]2ccccc2-c2ccccn2)[P+](c2ccccc2)(c2ccccc2)c2ccccc2[P+]1(c1ccccc1)c1ccccc1 [AuPhos-89, (2-phenylpyridine)[1,2-Bis(diphenylphosphino)benzene]gold(III) Dichloride]
- differentially expressed genes (DEG) [1]: 922
- downregulated genes [1]: 94
- upregulated genes [1]: 83
- downregulated proteins ([2]; ratio less than 1/1.5): 88
- upregulated proteins ([2]; ratio over 1.5): 75
- differentially expressed proteins ([2]; ratio over 1.5 or less than 1/1.5): 163
